Data published in US12384788B2, “1,4-dihydrobenzo[d]pyrazolo[3,4-f][1,3]diazepine derivatives and related compounds as LRRK2, NUAK1 and/or TYK2 kinase modulators for the treatment of e.g. autoimmune disease” (Origenis GMBH, priority 2019, dated 2025).
pIC50: −log10 of the molar value. Some results were stated once for a whole list of compounds, not compound by compound.

Protein sequences, listed by entry. Tags and fused reporters are not part of them. Lines headed by an entry give the natural chain unless they say otherwise; changes in a name come on top.
UniProt Q5S007: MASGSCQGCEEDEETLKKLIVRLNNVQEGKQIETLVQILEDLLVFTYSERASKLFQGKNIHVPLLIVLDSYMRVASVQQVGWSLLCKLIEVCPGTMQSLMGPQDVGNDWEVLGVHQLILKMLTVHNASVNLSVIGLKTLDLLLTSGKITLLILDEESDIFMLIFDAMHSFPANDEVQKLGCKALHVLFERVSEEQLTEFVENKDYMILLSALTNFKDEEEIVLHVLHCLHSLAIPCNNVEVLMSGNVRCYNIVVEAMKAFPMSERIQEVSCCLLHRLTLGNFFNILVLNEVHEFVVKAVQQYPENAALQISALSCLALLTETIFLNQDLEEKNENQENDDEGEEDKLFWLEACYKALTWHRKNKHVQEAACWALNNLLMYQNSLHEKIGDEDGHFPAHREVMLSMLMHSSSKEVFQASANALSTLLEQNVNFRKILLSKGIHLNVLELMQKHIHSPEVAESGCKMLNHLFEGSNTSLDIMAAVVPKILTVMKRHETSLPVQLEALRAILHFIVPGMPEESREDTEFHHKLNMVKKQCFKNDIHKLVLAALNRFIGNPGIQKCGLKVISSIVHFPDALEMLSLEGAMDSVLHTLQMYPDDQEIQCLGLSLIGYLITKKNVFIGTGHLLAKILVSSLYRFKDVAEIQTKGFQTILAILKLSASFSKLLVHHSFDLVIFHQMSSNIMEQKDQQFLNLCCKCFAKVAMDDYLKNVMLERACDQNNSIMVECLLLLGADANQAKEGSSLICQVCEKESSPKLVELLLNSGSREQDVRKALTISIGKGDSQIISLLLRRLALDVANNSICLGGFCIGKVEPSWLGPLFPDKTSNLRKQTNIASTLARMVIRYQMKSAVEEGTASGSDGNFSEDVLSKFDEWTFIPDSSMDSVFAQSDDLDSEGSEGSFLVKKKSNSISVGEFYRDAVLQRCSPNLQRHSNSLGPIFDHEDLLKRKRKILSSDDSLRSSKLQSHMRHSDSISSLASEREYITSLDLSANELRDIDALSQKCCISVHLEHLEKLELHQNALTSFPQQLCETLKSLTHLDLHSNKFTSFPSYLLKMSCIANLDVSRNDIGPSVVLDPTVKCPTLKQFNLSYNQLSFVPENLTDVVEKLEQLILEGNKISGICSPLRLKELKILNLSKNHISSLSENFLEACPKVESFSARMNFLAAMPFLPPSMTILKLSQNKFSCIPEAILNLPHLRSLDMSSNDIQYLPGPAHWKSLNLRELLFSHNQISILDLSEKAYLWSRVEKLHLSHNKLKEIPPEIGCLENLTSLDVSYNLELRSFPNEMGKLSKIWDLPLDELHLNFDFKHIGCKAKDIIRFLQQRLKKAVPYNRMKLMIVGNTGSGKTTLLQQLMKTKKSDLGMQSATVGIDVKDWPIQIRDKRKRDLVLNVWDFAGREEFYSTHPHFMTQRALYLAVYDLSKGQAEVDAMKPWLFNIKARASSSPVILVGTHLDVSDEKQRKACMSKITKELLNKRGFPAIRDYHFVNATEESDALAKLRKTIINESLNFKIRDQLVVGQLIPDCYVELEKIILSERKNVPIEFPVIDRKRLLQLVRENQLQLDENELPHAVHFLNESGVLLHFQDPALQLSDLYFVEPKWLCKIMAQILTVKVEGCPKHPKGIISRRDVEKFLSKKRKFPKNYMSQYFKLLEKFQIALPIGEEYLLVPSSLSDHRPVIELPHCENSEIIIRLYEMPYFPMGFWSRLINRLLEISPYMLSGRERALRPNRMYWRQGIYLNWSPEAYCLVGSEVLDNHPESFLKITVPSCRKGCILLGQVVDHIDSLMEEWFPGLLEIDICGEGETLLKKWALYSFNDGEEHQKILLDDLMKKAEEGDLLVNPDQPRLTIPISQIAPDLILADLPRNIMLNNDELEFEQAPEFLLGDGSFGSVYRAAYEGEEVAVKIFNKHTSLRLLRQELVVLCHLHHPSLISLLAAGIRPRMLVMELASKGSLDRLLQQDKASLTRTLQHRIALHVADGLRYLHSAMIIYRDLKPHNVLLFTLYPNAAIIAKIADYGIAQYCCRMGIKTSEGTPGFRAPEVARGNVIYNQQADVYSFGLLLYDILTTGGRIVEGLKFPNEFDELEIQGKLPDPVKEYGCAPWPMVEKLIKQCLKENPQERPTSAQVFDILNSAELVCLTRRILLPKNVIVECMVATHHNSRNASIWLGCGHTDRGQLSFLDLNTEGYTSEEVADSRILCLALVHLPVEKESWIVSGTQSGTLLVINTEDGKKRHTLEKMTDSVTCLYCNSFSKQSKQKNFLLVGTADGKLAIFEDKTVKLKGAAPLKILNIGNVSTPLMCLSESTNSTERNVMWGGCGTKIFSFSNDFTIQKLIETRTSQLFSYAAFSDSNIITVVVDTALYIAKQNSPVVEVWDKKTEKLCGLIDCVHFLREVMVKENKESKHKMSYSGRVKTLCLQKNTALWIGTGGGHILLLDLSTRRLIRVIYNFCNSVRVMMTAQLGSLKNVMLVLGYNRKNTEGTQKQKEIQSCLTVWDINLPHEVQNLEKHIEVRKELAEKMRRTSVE

molecular target: T1, LRRK2 (Wt) and LRRK2 (G2019) (Homo sapiens, UniProt Q5S007); test: TR-FRET LanthaScreen Eu Kinase Binding Assay, LRRK2; settings: wt human LRRK2 or G2019S human LRRK2, catalytic site; one bin printed for both; read-out: IC50, inhibitory activity toward LRRK2 (Wt) and LRRK2 (G2019)
T1 construct: fused on or other part: GST tag, inferred from the Eu-Anti-GST antibody used for detection

Question: Fc1cccc(F)c1C1=Nc2cn[nH]c2-c2cn(-c3ccccc3)nc2N1 [Compound 68, 5-(2,6-difluorophenyl)-8-phenyl-6,8-dihydro-1H-dipyrazolo[3,4-d:3 ′,4′-f][1,3]diazepine] was tested. Which pIC50 did it give?
Answer: > 8.00

Question: With Fc1cccc(F)c1C1=Nc2c(Br)n[nH]c2-c2ccccc2N1 [Compound 69, 3-bromo-5-(2,6-difluorophenyl)-1,6-dihydrobenzo[d]pyrazolo[3,4-f][1,3]diazepine] as the compound, how does the pIC50 read?
Answer: > 8.00

Question: How did the pIC50 turn out when Fc1cccc(F)c1C1=Nc2cnccc2-c2[nH]ncc2N1 [Compound 71, 5-(2,6-difluorophenyl)-1,4-dihydropyrazolo[4,3-d]pyrido[4,3-f][1,3]diazepine] was run?
Answer: > 8.00

Question: How did the pIC50 turn out when Fc1cccc(F)c1C1=Nc2cn[nH]c2-c2cn[nH]c2N1 [Compound 72, 5-(2,6-difluorophenyl)-6,7-dihydro-1H-dipyrazolo[3,4-d:3′,4′-f][1,3]diazepine] was run?
Answer: > 8.00

Question: How did the pIC50 turn out when O=C(O)c1ccc2c(c1)N=C(c1c(F)cccc1F)Nc1cn[nH]c1-2 [Compound 73, 5-(2,6-difluorophenyl)-1,4-dihydrobenzo[d]pyrazolo[3,4-f][1,3]diazepine-8-carboxylic acid] was run?
Answer: > 8.00

Question: Cc1n[nH]c2c1NC(c1c(F)cccc1F)=Nc1ccccc1-2 [Compound 76, 5-(2,6-difluorophenyl)-3-methyl-1,4-dihydrobenzo[d]pyrazolo[3,4-f][1,3]diazepine] was tested. Which pIC50 did it give?
Answer: > 8.00

Question: COc1cc2c(cc1OC)-c1[nH]ncc1N=C(c1c(F)cccc1F)N2 [Compound 77, 5-(2,6-difluorophenyl)-8,9-dimethoxy-1,6-dihydrobenzo[d]pyrazolo[3,4-f][1,3]diazepine] was tested. Which pIC50 did it give?
Answer: > 8.00

Question: O=C(c1ccc2c(c1)N=C(c1c(F)cccc1Cl)Nc1cn[nH]c1-2)N1CCOCC1 [Compound 78, (5-(2-chloro-6-fluorophenyl)-1,4-dihydrobenzo[d]pyrazolo[3,4-f][1,3]diazepin-8-yl)(morpholino)methanone] was tested. Which pIC50 did it give?
Answer: > 8.00

Question: O=C(c1ccc2c(c1)N=C(c1c(Cl)cccc1Cl)Nc1cn[nH]c1-2)N1CCOCC1 [Compound 79, (5-(2,6-dichlorophenyl)-1,4-dihydrobenzo[d]pyrazolo[3,4-f][1,3]diazepin-8-yl)(morpholino)methanone] was tested. Which pIC50 did it give?
Answer: > 8.00

Question: How did the pIC50 turn out when NC(=O)c1ccc2c(c1)N=C(c1c(F)cccc1F)Nc1cn[nH]c1-2 [Compound 81, 5-(2,6-difluorophenyl)-1,4-dihydrobenzo[d]pyrazolo[3,4-f][1,3]diazepine-8-carboxamide] was run?
Answer: > 8.00

Question: With Fc1cccc(F)c1C1=Nc2cn[nH]c2-c2cc(C3CCOCC3)cnc2N1 [Compound 86, 5-(2,6-difluorophenyl)-9-(tetrahydro-2H-pyran-4-yl)-1,6-dihydropyrazolo[4,3-d]pyrido[3,2-f][1,3]diazepine] as the compound, how does the pIC50 read?
Answer: > 8.00

Question: How did the pIC50 turn out when Fc1cccc(F)c1C1=Nc2cn[nH]c2-c2cc(-c3ccc[nH]3)cnc2N1 [Compound 87, 5-(2,6-difluorophenyl)-9-(1H-pyrrol-2-yl)-1,6-dihydropyrazolo[4,3-d]pyrido[3,2-f][1,3]diazepine] was run?
Answer: > 8.00

Question: Fc1cccc(Cl)c1C1=Nc2c(Br)n[nH]c2-c2cccnc2N1 [Compound 88] was tested. Which pIC50 did it give?
Answer: > 8.00

Question: FC(F)Oc1ccc2c(c1)-c1[nH]ncc1N=C(c1c(Cl)cccc1Cl)N2 [Compound 90, 5-(2,6-dichlorophenyl)-9-(difluoromethoxy)-1,6-dihydrobenzo[d]pyrazolo[3,4-f][1,3]diazepine] was tested. Which pIC50 did it give?
Answer: > 8.00

Question: How did the pIC50 turn out when NC(=O)c1ccc2c(c1)-c1[nH]ncc1NC(c1c(F)cccc1F)=N2 [Compound 93, 5-(2,6-difluorophenyl)-1,4-dihydrobenzo[d]pyrazolo[3,4-f][1,3]diazepine-9-carboxamide] was run?
Answer: > 8.00

Question: How did the pIC50 turn out when NC(=O)c1ccc2c(c1)-c1[nH]ncc1N=C(c1c(F)cccc1Cl)N2 [Compound 94, 5-(2-chloro-6-fluorophenyl)-1,6-dihydrobenzo[d]pyrazolo[3,4-f][1,3]diazepine-9-carboxamide] was run?
Answer: > 8.00

Question: O=C(NC1CCOCC1)c1ccc2c(c1)N=C(c1c(F)cccc1F)Nc1cn[nH]c1-2 [Compound 95, 5-(2,6-difluorophenyl)-N-(tetrahydro-2H-pyran-4-yl)-1,4-dihydrobenzo[d]pyrazolo[3,4-f][1,3]diazepine-8-carboxamide] was tested. Which pIC50 did it give?
Answer: > 8.00

Question: How did the pIC50 turn out when O=C(NCCF)c1ccc2c(c1)-c1[nH]ncc1NC(c1c(F)cccc1Cl)=N2 [Compound 97, 5-(2-chloro-6-fluorophenyl)-N-(2-fluoroethyl)-1,4-dihydrobenzo[d]pyrazolo[3,4-f][1,3]diazepine-9-carboxamide] was run?
Answer: > 8.00

Question: CC(C)(O)c1ccc2c(c1)NC(c1c(F)cccc1F)=Nc1cn[nH]c1-2 [Compound 98, 2-(5-(2,6-difluorophenyl)-1,6-dihydrobenzo[d]pyrazolo[3,4-f][1,3]diazepin-8-yl)propan-2-ol] was tested. Which pIC50 did it give?
Answer: > 8.00

Question: With O=C(NCCF)c1ccc2c(c1)-c1[nH]ncc1NC(c1c(F)cccc1F)=N2 [Compound 101, 5-(2,6-difluorophenyl)-N-(2-fluoroethyl)-1,4-dihydrobenzo[d]pyrazolo[3,4-f][1,3]diazepine-9-carboxamide] as the compound, how does the pIC50 read?
Answer: > 8.00

Question: Fc1cccc(F)c1C1=Nc2cn[nH]c2-c2cc(OC3CCOCC3)ccc2N1 [Compound 102, 5-(2,6-difluorophenyl)-9-((tetrahydro-2H-pyran-4-yl)oxy)-1,6-dihydrobenzo[d]pyrazolo[3,4-f][1,3]diazepine] was tested. Which pIC50 did it give?
Answer: > 8.00

Question: With Nc1ccc2c(c1)-c1[nH]ncc1N=C(c1c(F)cccc1F)N2 [Compound 103, 5-(2,6-difluorophenyl)-1,6-dihydrobenzo[d]pyrazolo[3,4-f][1,3]diazepin-9-amine] as the compound, how does the pIC50 read?
Answer: > 8.00

Question: How did the pIC50 turn out when O=C(NCCF)c1cc2c(cn1)NC(c1c(F)cccc1F)=Nc1cn[nH]c1-2 [Compound 112, 5-(2,6-difluorophenyl)-N-(2-fluoroethyl)-1,6-dihydropyrazolo[4,3-d]pyrido[4,3-f][1,3]diazepine-9-carboxamide] was run?
Answer: > 8.00

Question: Fc1cccc(F)c1C1=Nc2ccc(N3CCOCC3)cc2-c2[nH]ncc2N1 [Compound 117, 4-(5-(2,6-difluorophenyl)-1,4-dihydrobenzo[d]pyrazolo[3,4-f][1,3]diazepin-9-yl)morpholine] was tested. Which pIC50 did it give?
Answer: > 8.00

Question: How did the pIC50 turn out when Fc1cccc(Cl)c1C1=Nc2cn[nH]c2-c2cc(C3=CCOCC3)cnc2N1 [Compound 120, 5-(2-chloro-6-fluorophenyl)-9-(3,6-dihydro-2H-pyran-4-yl)-1,6-dihydropyrazolo[4,3-d]pyrido[3,2-f][1,3]diazepine] was run?
Answer: > 8.00

Question: O=[N+]([O-])c1cccc(F)c1C1=Nc2cn[nH]c2-c2cc(C3=CCOCC3)cnc2N1 [Compound 123, 9-(3,6-dihydro-2H-pyran-4-yl)-5-(2-fluoro-6-nitrophenyl)-1,6-dihydropyrazolo[4,3-d]pyrido[3,2-f][1,3]diazepine] was tested. Which pIC50 did it give?
Answer: > 8.00

Question: Cc1ccc2c(c1)-c1[nH]ncc1N=C(c1c(F)cccc1[N+](=O)[O-])N2 [Compound 125, 5-(2-fluoro-6-nitrophenyl)-9-methyl-1,6-dihydrobenzo[d]pyrazolo[3,4-f][1,3]diazepine] was tested. Which pIC50 did it give?
Answer: > 8.00

Question: How did the pIC50 turn out when Cc1ccc2c(c1)-c1[nH]ncc1N=C(c1c(F)cc(NCCF)cc1F)N2 [Compound 126, 3,5-difluoro-N-(2-fluoroethyl)-4-(9-methyl-1,6-dihydrobenzo[d]pyrazolo[3,4-f][1,3]diazepin-5-yl)aniline] was run?
Answer: > 8.00

Question: With COc1cc2c(cn1)NC(c1c(F)cccc1F)=Nc1cn[nH]c1-2 [Compound 127, 5-(2,6-difluorophenyl)-9-methoxy-1,6-dihydropyrazolo[4,3-d]pyrido[4,3-f][1,3]diazepine] as the compound, how does the pIC50 read?
Answer: > 8.00

Question: How did the pIC50 turn out when FCCN1CC=C(c2cnc3c(c2)-c2[nH]ncc2N=C(c2c(F)cccc2F)N3)CC1 [Compound 128, 5-(2,6-difluorophenyl)-9-(1-(2-fluoroethyl)-1,2,3,6-tetrahydropyridin-4-yl)-1,6-dihydropyrazolo[4,3-d]pyrido[3,2-f][1,3]diazepine] was run?
Answer: > 8.00

Question: How did the pIC50 turn out when OCCN1CC=C(c2cnc3c(c2)-c2[nH]ncc2N=C(c2c(F)cccc2F)N3)CC1 [Compound 132, 2-(4-(5-(2,6-difluorophenyl)-1,6-dihydropyrazolo[4,3-d]pyrido[3,2-f][1,3]diazepin-9-yl)-5,6-dihydropyridin-1(2H)-yl)ethan-1-ol] was run?
Answer: > 8.00

Question: With Fc1cccc(F)c1C1=Nc2ccc(C3=CCOCC3)cc2-c2[nH]ncc2N1 [Compound 133, 5-(2,6-difluorophenyl)-9-(3,6-dihydro-2H-pyran-4-yl)-1,4-dihydrobenzo[d]pyrazolo[3,4-f][1,3]diazepine] as the compound, how does the pIC50 read?
Answer: > 8.00

Question: Fc1cccc(F)c1C1=Nc2ccccc2-c2[nH]nc(Cl)c2N1 [Compound 135, 3-chloro-5-(2,6-difluorophenyl)-1,4-dihydrobenzo[d]pyrazolo[3,4-f][1,3]diazepine] was tested. Which pIC50 did it give?
Answer: > 8.00

Question: Cc1cc(F)c2c(c1)-c1[nH]ncc1NC(c1c(F)cccc1F)=N2 [Compound 138, 5-(2,6-difluorophenyl)-7-fluoro-9-methyl-1,4-dihydrobenzo [d]pyrazolo[3,4-f][1,3]diazepine] was tested. Which pIC50 did it give?
Answer: > 8.00

Question: How did the pIC50 turn out when CC(C)c1ccc2c(c1)-c1[nH]ncc1N=C(c1c(F)cccc1F)N2 [Compound 139, 5-(2,6-difluorophenyl)-9-isopropyl-1,6-dihydrobenzo[d]pyrazolo[3,4-f][1,3]diazepine] was run?
Answer: > 8.00

Question: With NC(=O)c1cnc2c(c1)-c1[nH]ncc1N=C(c1c(F)cccc1F)N2 [Compound 140, 5-(2,6-difluorophenyl)-1,6-dihydropyrazolo[4,3-d]pyrido[3,2-f][1,3]diazepine-9-carboxamide] as the compound, how does the pIC50 read?
Answer: > 8.00

Question: CN1CCN(c2ccc3c(c2)-c2[nH]ncc2NC(c2c(F)cccc2F)=N3)C1=O [Compound 141, 1-(5-(2,6-difluorophenyl)-1,4-dihydrobenzo[d]pyrazolo[3,4-f][1,3]diazepin-9-yl)-3-methylimidazolidin-2-one] was tested. Which pIC50 did it give?
Answer: > 8.00

Question: How did the pIC50 turn out when Cc1ccc2c(c1)-c1[nH]nc(Cl)c1NC(c1c(F)cccc1F)=N2 [Compound 143, 3-chloro-5-(2,6-difluorophenyl)-9-methyl-1,4-dihydrobenzo[d]pyrazolo [3,4-f][1,3]diazepine] was run?
Answer: > 8.00
